From article PMC12509902, “PRMT1/PRMT5-Mediated Differential Arginine Methylation of CRIP1 Promotes the Recurrence of Small Cell Lung Cancer after Chemotherapy” (International Journal of Biological Sciences, 2025)
These are yes or no findings as the source states them, for the method shown. Binding calls can cover weak binding; strength is not graded here. Sequences can lack the tags named with a protein.

Molecular target: GST-p38
Assay: pull-down; GST pull-down as described in ref. 23; GST-tagged protein expressed in BL21; Flag-tagged protein purified from HEK-293T by Flag affinity gel and 3× FLAG peptide elution; the paper calls the binding direct; both purified

binding: binds
B1: GST-CRIP1, full-length (FL), wild type (natural protein, UniProt P50238 1-77, looked up)
chain: MPKCPKCNKEVYFAERVTSLGKDWHRPCLKCEKCGKTLTSGGHAEHEGKPYCNHPCYAAMFGPKGFGRGGAESHTFK
notes: Cysteine-rich intestinal protein 1 (CRIP1), full length, in pGEX-6P-1; also called GST-CRIP1 WT; source: E. coli BL21, induced with 1 mM IPTG
